# Measured values reported in the supplement of paper PMC11438910.
# The other results are listed elsewhere or left out. The signal is at background level for most entries.
# How the values were obtained:
# Assay in all cases: fluorescence intensity of antibody binding to polysaccharide-coupled beads; higher = stronger binding
# [1] = target: pneumococcal polysaccharide Pn7A
# [2] = target: pneumococcal polysaccharide Pn7B
# [3] = target: pneumococcal polysaccharide Pn7C
# [4] = target: pneumococcal polysaccharide Pn7F
# [5] = target: pneumococcal polysaccharide Pn8
# [6] = target: pneumococcal polysaccharide Pn9A
# [7] = target: pneumococcal polysaccharide Pn9L
# [8] = target: pneumococcal polysaccharide Pn9N
# [9] = target: pneumococcal polysaccharide Pn9V
# [10] = target: pneumococcal polysaccharide C-Poly-1
# [11] = target: pneumococcal polysaccharide C-Poly-2
# [12] = target: pneumococcal polysaccharide Pn1
# [13] = target: pneumococcal polysaccharide Pn10A
# [14] = target: pneumococcal polysaccharide Pn10B
# [15] = target: pneumococcal polysaccharide Pn10C
# [16] = target: pneumococcal polysaccharide Pn10F
# [17] = target: pneumococcal polysaccharide Pn11A
# [18] = target: pneumococcal polysaccharide Pn11B
# [19] = target: pneumococcal polysaccharide Pn11C
# [20] = target: pneumococcal polysaccharide Pn11D
# [21] = target: pneumococcal polysaccharide Pn11F
# [22] = antibody concentration 2.8593 ng/mL
# [23] = antibody concentration 15.2894 ng/mL
# [24] = antibody concentration 81.7561 ng/mL
# [25] = antibody concentration 437.17 ng/mL
# [26] = antibody concentration 2337.65 ng/mL
# [27] = antibody concentration 12500 ng/mL
# [28] = antibody concentration 0.1 ng/mL
# [29] = antibody concentration 0.534724 ng/mL
binder,measurement,setting,value
4-99.2 (protein) chain 1: QVQLQESGPGLVKPSETLSLTCAVSGYSIRSAYEWGWIRQPPGKGLEYIGYISGESGNTYYSPSLKSRVTISRDTSKNQFSLRLSSVTAADSAVYYCARRGQLIGFDFWGQGVLVTVSS chain 2: QAAPTQPPSVSGSPGQSVTISCTGTSSDIGYYNAVSWYQHLPGKAPKLMIYEVSKRPSGVSDRFSGSKSGNTASLTISGLQAEDEADYYCSSYAGSNTYIFGAGTRLTVL,fluorescence intensity,[1]; [22],17.5 MFI
same,fluorescence intensity,[1]; [23],19.5 MFI
same,fluorescence intensity,[1]; [24],21.5 MFI
same,fluorescence intensity,[1]; [25],23 MFI
same,fluorescence intensity,[1]; [26],27.2 MFI
same,fluorescence intensity,[1]; [27],88.5 MFI
same,fluorescence intensity,[2]; [28],15 MFI
same,fluorescence intensity,[2]; [29],16 MFI
same,fluorescence intensity,[2]; [22],16.8 MFI
same,fluorescence intensity,[2]; [23],17.5 MFI
same,fluorescence intensity,[2]; [24],16.5 MFI
same,fluorescence intensity,[2]; [25],16 MFI
same,fluorescence intensity,[2]; [26],18 MFI
same,fluorescence intensity,[2]; [27],32.5 MFI
same,fluorescence intensity,[3]; [28],16 MFI
same,fluorescence intensity,[3]; [29],14.5 MFI
same,fluorescence intensity,[3]; [22],16 MFI
same,fluorescence intensity,[3]; [23],17 MFI
same,fluorescence intensity,[3]; [24],16.5 MFI
same,fluorescence intensity,[3]; [25],17 MFI
same,fluorescence intensity,[3]; [26],18.5 MFI
same,fluorescence intensity,[3]; [27],27.8 MFI
same,fluorescence intensity,[4]; [28],13 MFI
same,fluorescence intensity,[4]; [29],14 MFI
same,fluorescence intensity,[4]; [22],14.5 MFI
same,fluorescence intensity,[4]; [23],14 MFI
same,fluorescence intensity,[4]; [24],14.5 MFI
same,fluorescence intensity,[4]; [25],15.5 MFI
same,fluorescence intensity,[4]; [26],19.5 MFI
same,fluorescence intensity,[4]; [27],58 MFI
same,fluorescence intensity,[5]; [28],19.5 MFI
same,fluorescence intensity,[5]; [29],20.5 MFI
same,fluorescence intensity,[5]; [22],19.5 MFI
same,fluorescence intensity,[5]; [23],19.5 MFI
same,fluorescence intensity,[5]; [24],21.5 MFI
same,fluorescence intensity,[5]; [25],23.5 MFI
same,fluorescence intensity,[5]; [26],25.5 MFI
same,fluorescence intensity,[5]; [27],38 MFI
same,fluorescence intensity,[6]; [28],19 MFI
same,fluorescence intensity,[6]; [29],19 MFI
same,fluorescence intensity,[6]; [22],18.5 MFI
same,fluorescence intensity,[6]; [23],21 MFI
same,fluorescence intensity,[6]; [24],21 MFI
same,fluorescence intensity,[6]; [25],17.8 MFI
same,fluorescence intensity,[6]; [26],22.8 MFI
same,fluorescence intensity,[6]; [27],34 MFI
same,fluorescence intensity,[7]; [28],17.5 MFI
same,fluorescence intensity,[7]; [29],16 MFI
same,fluorescence intensity,[7]; [22],16.5 MFI
same,fluorescence intensity,[7]; [23],17.2 MFI
same,fluorescence intensity,[7]; [24],18 MFI
same,fluorescence intensity,[7]; [25],19.2 MFI
same,fluorescence intensity,[7]; [26],18 MFI
same,fluorescence intensity,[7]; [27],27 MFI
same,fluorescence intensity,[8]; [28],15.5 MFI
same,fluorescence intensity,[8]; [29],14.5 MFI
same,fluorescence intensity,[8]; [22],16.5 MFI
same,fluorescence intensity,[8]; [23],14.5 MFI
same,fluorescence intensity,[8]; [24],18.8 MFI
same,fluorescence intensity,[8]; [25],16.5 MFI
same,fluorescence intensity,[8]; [26],18 MFI
same,fluorescence intensity,[8]; [27],28 MFI
same,fluorescence intensity,[9]; [28],14 MFI
same,fluorescence intensity,[9]; [29],13 MFI
same,fluorescence intensity,[9]; [22],14 MFI
same,fluorescence intensity,[9]; [23],14 MFI
same,fluorescence intensity,[9]; [24],15 MFI
same,fluorescence intensity,[9]; [25],15 MFI
same,fluorescence intensity,[9]; [26],15.2 MFI
same,fluorescence intensity,[9]; [27],22 MFI
4-99.3 (protein) chain 1: QVQLQESGPGLVKPSETLSLTCAVSGYSISSGYYWGWIRQPPGKGLEYIGYISGSWGKSYYKPSLKSRVTISKDTSKNQFSLTLSSVTAADTAVYYCARRLEYVGFDVWGPGVLVTVSS chain 2: QAAPTQPPSVSGSPGQSVTISCTGTSSDIGYYNAVSWYQQHPGKAPKLMIYEVSKRPSGVSDRFSGSKSGNTASLTISGLQAEDEADYYCSSYAGSNTYIFGSGTRLTVL,fluorescence intensity,[10]; [28],23.5 MFI
same,fluorescence intensity,[10]; [29],27 MFI
same,fluorescence intensity,[10]; [22],25 MFI
same,fluorescence intensity,[10]; [23],26.5 MFI
same,fluorescence intensity,[10]; [24],27 MFI
same,fluorescence intensity,[10]; [25],30.8 MFI
same,fluorescence intensity,[10]; [26],63.5 MFI
same,fluorescence intensity,[10]; [27],502 MFI
same,fluorescence intensity,[11]; [28],20.2 MFI
same,fluorescence intensity,[11]; [29],19.5 MFI
same,fluorescence intensity,[11]; [22],20 MFI
same,fluorescence intensity,[11]; [23],20 MFI
same,fluorescence intensity,[11]; [24],21 MFI
same,fluorescence intensity,[11]; [25],25 MFI
same,fluorescence intensity,[11]; [26],51.8 MFI
same,fluorescence intensity,[11]; [27],404 MFI
same,fluorescence intensity,[12]; [28],13.5 MFI
same,fluorescence intensity,[12]; [29],13.5 MFI
same,fluorescence intensity,[12]; [22],13 MFI
same,fluorescence intensity,[12]; [23],13 MFI
same,fluorescence intensity,[12]; [24],13.5 MFI
same,fluorescence intensity,[12]; [25],15.5 MFI
same,fluorescence intensity,[12]; [26],20.5 MFI
same,fluorescence intensity,[12]; [27],84.5 MFI
same,fluorescence intensity,[13]; [28],25 MFI
same,fluorescence intensity,[13]; [29],26 MFI
same,fluorescence intensity,[13]; [22],25 MFI
same,fluorescence intensity,[13]; [23],25.5 MFI
same,fluorescence intensity,[13]; [24],26.5 MFI
same,fluorescence intensity,[13]; [25],26 MFI
same,fluorescence intensity,[13]; [26],29.8 MFI
same,fluorescence intensity,[13]; [27],79.5 MFI
same,fluorescence intensity,[14]; [28],24.2 MFI
same,fluorescence intensity,[14]; [29],23 MFI
same,fluorescence intensity,[14]; [22],23.8 MFI
same,fluorescence intensity,[14]; [23],22 MFI
same,fluorescence intensity,[14]; [24],22.8 MFI
same,fluorescence intensity,[14]; [25],25.5 MFI
same,fluorescence intensity,[14]; [26],26 MFI
same,fluorescence intensity,[14]; [27],47.8 MFI
same,fluorescence intensity,[15]; [28],15.5 MFI
same,fluorescence intensity,[15]; [29],16.5 MFI
same,fluorescence intensity,[15]; [22],15.5 MFI
same,fluorescence intensity,[15]; [23],15.5 MFI
same,fluorescence intensity,[15]; [24],17.2 MFI
same,fluorescence intensity,[15]; [25],15.5 MFI
same,fluorescence intensity,[15]; [26],20 MFI
same,fluorescence intensity,[15]; [27],35.5 MFI
same,fluorescence intensity,[16]; [28],20 MFI
same,fluorescence intensity,[16]; [29],19 MFI
same,fluorescence intensity,[16]; [22],20.5 MFI
same,fluorescence intensity,[16]; [23],19.5 MFI
same,fluorescence intensity,[16]; [24],19 MFI
same,fluorescence intensity,[16]; [25],18.5 MFI
same,fluorescence intensity,[16]; [26],21.5 MFI
same,fluorescence intensity,[16]; [27],28.2 MFI
same,fluorescence intensity,[17]; [28],27 MFI
same,fluorescence intensity,[17]; [29],29.2 MFI
same,fluorescence intensity,[17]; [22],29.8 MFI
same,fluorescence intensity,[17]; [23],27.5 MFI
same,fluorescence intensity,[17]; [24],29.8 MFI
same,fluorescence intensity,[17]; [25],31.5 MFI
same,fluorescence intensity,[17]; [26],37.8 MFI
same,fluorescence intensity,[17]; [27],72.8 MFI
same,fluorescence intensity,[18]; [28],22.5 MFI
same,fluorescence intensity,[18]; [29],26 MFI
same,fluorescence intensity,[18]; [22],25.5 MFI
same,fluorescence intensity,[18]; [23],25 MFI
same,fluorescence intensity,[18]; [24],25.2 MFI
same,fluorescence intensity,[18]; [25],28.5 MFI
same,fluorescence intensity,[18]; [26],35.8 MFI
same,fluorescence intensity,[18]; [27],41.8 MFI
same,fluorescence intensity,[19]; [28],23.5 MFI
same,fluorescence intensity,[19]; [29],19.5 MFI
same,fluorescence intensity,[19]; [22],21.5 MFI
same,fluorescence intensity,[19]; [23],21.5 MFI
same,fluorescence intensity,[19]; [24],21.5 MFI
same,fluorescence intensity,[19]; [25],24.5 MFI
same,fluorescence intensity,[19]; [26],63 MFI
same,fluorescence intensity,[19]; [27],440 MFI
same,fluorescence intensity,[20]; [28],23 MFI
same,fluorescence intensity,[20]; [29],21.5 MFI
same,fluorescence intensity,[20]; [22],22 MFI
same,fluorescence intensity,[20]; [23],23 MFI
same,fluorescence intensity,[20]; [24],22 MFI
same,fluorescence intensity,[20]; [25],23.5 MFI
same,fluorescence intensity,[20]; [26],42.2 MFI
same,fluorescence intensity,[20]; [27],193 MFI
same,fluorescence intensity,[21]; [28],14.2 MFI
same,fluorescence intensity,[21]; [29],13.5 MFI

# Part of the list above, tab-delimited.
binder	measurement	setting	value
4-99.2 (protein) chain 1: QVQLQESGPGLVKPSETLSLTCAVSGYSIRSAYEWGWIRQPPGKGLEYIGYISGESGNTYYSPSLKSRVTISRDTSKNQFSLRLSSVTAADSAVYYCARRGQLIGFDFWGQGVLVTVSS chain 2: QAAPTQPPSVSGSPGQSVTISCTGTSSDIGYYNAVSWYQHLPGKAPKLMIYEVSKRPSGVSDRFSGSKSGNTASLTISGLQAEDEADYYCSSYAGSNTYIFGAGTRLTVL	fluorescence intensity	[1]; [25]	23 MFI
same	fluorescence intensity	[9]; [22]	14 MFI
4-99.3 (protein) chain 1: QVQLQESGPGLVKPSETLSLTCAVSGYSISSGYYWGWIRQPPGKGLEYIGYISGSWGKSYYKPSLKSRVTISKDTSKNQFSLTLSSVTAADTAVYYCARRLEYVGFDVWGPGVLVTVSS chain 2: QAAPTQPPSVSGSPGQSVTISCTGTSSDIGYYNAVSWYQQHPGKAPKLMIYEVSKRPSGVSDRFSGSKSGNTASLTISGLQAEDEADYYCSSYAGSNTYIFGSGTRLTVL	fluorescence intensity	[10]; [29]	27 MFI
same	fluorescence intensity	[12]; [25]	15.5 MFI
same	fluorescence intensity	[14]; [26]	26 MFI
same	fluorescence intensity	[14]; [27]	47.8 MFI
same	fluorescence intensity	[19]; [28]	23.5 MFI
